In PMC3103587:
No constants are given. Whether binding was seen depends on the method and setting. For some assays here: Binding seen in cells or lysates may run through a third protein. Some results given as binding are weak or reduced against the parent protein; the word gives no strength. For some assays here: Tags and fused reporters may be left off the sequences shown.

Protein sequences, listed by entry. Tags and fused reporters are not part of them.
UniProt O35303: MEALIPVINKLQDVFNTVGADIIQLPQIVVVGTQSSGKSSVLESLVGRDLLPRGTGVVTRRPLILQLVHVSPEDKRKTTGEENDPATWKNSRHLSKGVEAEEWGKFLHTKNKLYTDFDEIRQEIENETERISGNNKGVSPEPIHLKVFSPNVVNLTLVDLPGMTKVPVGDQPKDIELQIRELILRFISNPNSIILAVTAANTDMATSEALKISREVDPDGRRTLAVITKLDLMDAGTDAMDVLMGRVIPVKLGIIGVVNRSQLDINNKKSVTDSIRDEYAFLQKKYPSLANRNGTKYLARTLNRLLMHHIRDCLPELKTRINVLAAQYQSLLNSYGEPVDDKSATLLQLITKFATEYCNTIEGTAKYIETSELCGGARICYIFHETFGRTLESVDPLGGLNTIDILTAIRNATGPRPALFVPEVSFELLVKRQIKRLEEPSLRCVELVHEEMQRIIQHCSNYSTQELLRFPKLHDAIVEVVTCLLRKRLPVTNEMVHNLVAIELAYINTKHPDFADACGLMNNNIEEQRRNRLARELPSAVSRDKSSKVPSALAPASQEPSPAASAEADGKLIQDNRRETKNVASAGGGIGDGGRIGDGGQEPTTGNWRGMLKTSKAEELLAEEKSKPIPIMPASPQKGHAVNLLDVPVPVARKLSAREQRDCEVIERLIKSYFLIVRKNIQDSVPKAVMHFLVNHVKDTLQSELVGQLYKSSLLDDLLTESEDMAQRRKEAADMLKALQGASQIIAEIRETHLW

How the values were obtained:
YFP-N-Myc-Mfn2 = molecular target: T1, YFP-N-Myc-Mfn2 (UniProt O95140); experiment: split reporter; BiFC with YFP[1–158] and YFP[159–238] fragments in co-transfected cells (BHK-21 for Mfn2/DLP1)
T1 sequence: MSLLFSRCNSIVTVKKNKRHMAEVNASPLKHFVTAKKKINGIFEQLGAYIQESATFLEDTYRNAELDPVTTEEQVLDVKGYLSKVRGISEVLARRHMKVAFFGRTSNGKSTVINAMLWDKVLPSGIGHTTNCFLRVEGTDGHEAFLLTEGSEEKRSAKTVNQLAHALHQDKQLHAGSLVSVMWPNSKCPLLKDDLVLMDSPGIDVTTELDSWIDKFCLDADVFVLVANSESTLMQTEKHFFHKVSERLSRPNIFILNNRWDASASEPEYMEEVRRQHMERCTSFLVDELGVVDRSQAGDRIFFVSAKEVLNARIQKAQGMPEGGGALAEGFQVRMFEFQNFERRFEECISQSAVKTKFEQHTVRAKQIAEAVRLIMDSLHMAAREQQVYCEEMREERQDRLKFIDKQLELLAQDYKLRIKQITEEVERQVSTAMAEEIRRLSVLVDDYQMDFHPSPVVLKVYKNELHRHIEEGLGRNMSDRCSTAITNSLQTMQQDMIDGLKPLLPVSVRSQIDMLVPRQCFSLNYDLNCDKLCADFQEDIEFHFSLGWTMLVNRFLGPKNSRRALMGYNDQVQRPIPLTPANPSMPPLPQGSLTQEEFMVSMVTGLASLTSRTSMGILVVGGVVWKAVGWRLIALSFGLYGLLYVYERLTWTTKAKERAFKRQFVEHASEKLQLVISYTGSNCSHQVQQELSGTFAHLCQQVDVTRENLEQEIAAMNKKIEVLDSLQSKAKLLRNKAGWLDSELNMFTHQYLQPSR

[1] = molecular target: dynamin-like protein DLP1/Drp1, full-length (two-hybrid construct) (UniProt O35303); experiment: two-hybrid; semi-quantitative: Matchmaker Two-Hybrid System 3, yeast AH109; ratio of colony numbers on SD/-Leu/-Trp/-His and SD/-Leu/-Trp plates (HIS3 activity)

| Substance | binding (YFP-N-Myc-Mfn2) | binding [1] |
| --- | --- | --- |
| YFP-C-HA-DLP1 (from UniProt O35303 1-755) | binds |  |
| dynamin-like protein DLP1/Drp1, full-length (two-hybrid construct) (from UniProt O35303 1-755) |  | binds |
